Measurements reported in PubChem BioAssay AID1159578 (Peter MacCallum Cancer Centre, 2015)
Test: 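Genome-wide hunt for genes controlling movement of lymphatic endothelial cells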 (primary screen). Cells: human lymphatic endothelial cells. Knock-down reagent: siRNA pool against human genes, 40 nM. Duration: 48 h after transfection. Detection: 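Cells stained with dye and imaged after a scratch; covered wound area and nuclei counted, duplicates averaged, migration set against mock wells and turned into a robust z-score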. Reading the numbers: migration robust z-score: higher = faster migration into the scratch; nuclei per well: higher = more cells in the well. Rule for the call: 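Pools averaging fewer than 3300 nuclei are never called; remaining pools count as changed when migration robust z lies outside -2 to 2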. Calls: active = migration changed; inactive = no migration change, or too few cells.
The deposit covers about 18,000 reagents; shown is a random part of them. About 1,030 of all reagents (5.7%) count as active. 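Inactive calls also include pools with fewer than 3300 nuclei, whose migration was not assessed.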 Raw values are not corrected between plates. Not all columns of the deposit are shown. No sequences are given here.

no.	gene knocked down	migration robust z-score	migration class with cell-count check	nuclei per well, duplicate mean	activity call
1	DUSP11	0.16	migration z between -2 and 2; enough cells	5308	inactive
2	MRPL49	0.04	migration z between -2 and 2; enough cells	5774	inactive
3	ALMS1	-0.74	migration z between -2 and 2; enough cells	4933	inactive
4	TAPBPL	-0.44	migration z between -2 and 2; enough cells	5826	inactive
5	MYF5	0.34	migration z between -2 and 2; enough cells	5861	inactive
6	ANXA1	0.85	migration z between -2 and 2; enough cells	6254	inactive
7	OR52N1	1.4	migration z between -2 and 2; enough cells	6010	inactive
8	PRPF6	-1.64	migration z between -2 and 2; enough cells	6270	inactive
9	RNASE2	1.32	migration z between -2 and 2; enough cells	4982	inactive
10	RBAKDN	1.61	migration z between -2 and 2; enough cells	6118	inactive
11	TWIST2	0.83	migration z between -2 and 2; enough cells	5445	inactive
12	CYB5R3	0.7	migration z between -2 and 2; enough cells	5854	inactive
13	GCSH	0.16	migration z between -2 and 2; enough cells	5418	inactive
14	CRCT1	-3.02	migration z below -2; enough cells	3696	active
15	TTLL1	0.26	migration z between -2 and 2; enough cells	5106	inactive
16	TTC3	-0.11	migration z between -2 and 2; enough cells	5319	inactive
17	TMEM26	-0.71	migration z between -2 and 2; enough cells	5795	inactive
18	AVIL	-1.01	migration z between -2 and 2; enough cells	6202	inactive
19	WDR59	1.4	migration z between -2 and 2; enough cells	4067	inactive
20	BTF3L4	0.79	migration z between -2 and 2; enough cells	6112	inactive
21	NUDCD2	2	migration z between -2 and 2; enough cells	6506	inactive
22	MBOAT2	0.12	migration z between -2 and 2; enough cells	6506	inactive
23	PKIA	-1.03	migration z between -2 and 2; enough cells	5781	inactive
24	PLEKHG2	0.88	migration z between -2 and 2; enough cells	4622	inactive
25	CD99	1.62	migration z between -2 and 2; enough cells	5528	inactive
26	KANSL3	2.5	migration z above 2; enough cells	7823	active
27	TRAPPC2L	-1.14	migration z between -2 and 2; enough cells	5564	inactive

Next part; the last 3 above are carried over.
no.	gene knocked down	migration robust z-score	migration class with cell-count check	nuclei per well, duplicate mean	activity call
25	CD99	1.62	migration z between -2 and 2; enough cells	5528	inactive
26	KANSL3	2.5	migration z above 2; enough cells	7823	active
27	TRAPPC2L	-1.14	migration z between -2 and 2; enough cells	5564	inactive
28	RDH11	-3.14	migration z below -2; enough cells	6649	active
29	KCNQ1	-0.42	migration z between -2 and 2; enough cells	5717	inactive
30	POLL	-1.94	migration z between -2 and 2; enough cells	4293	inactive
31	RSL24D1	-0.12	migration z between -2 and 2; enough cells	4288	inactive
32	TBC1D14	-0.66	migration z between -2 and 2; enough cells	5676	inactive
33	SDAD1	0.11	migration z between -2 and 2; enough cells	4627	inactive
34	AP1S3	0.56	migration z between -2 and 2; enough cells	6354	inactive
35	ROGDI	1.89	migration z between -2 and 2; enough cells	5700	inactive
36	PCGF3	0.13	migration z between -2 and 2; enough cells	3884	inactive
37	SLC7A11	1.72	migration z between -2 and 2; enough cells	6301	inactive
38	BPNT2	-1.48	migration z between -2 and 2; enough cells	5948	inactive
39	PCM1	1.48	migration z between -2 and 2; enough cells	6008	inactive
40	TNFSF11	-0.88	migration z between -2 and 2; enough cells	4490	inactive
41	NPFFR2	1.38	migration z between -2 and 2; enough cells	6160	inactive
42	ZNF576	2.27	migration z above 2; enough cells	5970	active
43	RAB3GAP1	1.49	migration z between -2 and 2; enough cells	6503	inactive
44	THADA	0.84	migration z between -2 and 2; enough cells	6362	inactive
45	VMA21	0.54	migration z between -2 and 2; enough cells	5646	inactive
46	SPTLC1	-0.7	migration z between -2 and 2; enough cells	3614	inactive
47	RHO	0.28	migration z between -2 and 2; enough cells	6948	inactive
48	PSG2	0.95	migration z between -2 and 2; enough cells	5456	inactive
49	IDH3B	-0.42	migration z between -2 and 2; enough cells	4738	inactive
50	AIF1	-0.54	migration z between -2 and 2; enough cells	5624	inactive
51	HAO1	-0.26	migration z between -2 and 2; enough cells	6780	inactive
52	GPR3	1.55	migration z between -2 and 2; enough cells	6408	inactive
53	OR8K3	2.79	migration z above 2; enough cells	6318	active
54	IRF3	-0.55	migration z between -2 and 2; enough cells	3552	inactive
55	CRNKL1	-0.31	migration z between -2 and 2; enough cells	5158	inactive
56	TCEAL8	-1.29	migration z between -2 and 2; enough cells	5830	inactive
57	SLF2	0.62	migration z between -2 and 2; enough cells	5426	inactive
58	IRAK3	-0.78	migration z between -2 and 2; enough cells	3509	inactive
59	CDC42EP4	1.15	migration z between -2 and 2; enough cells	4809	inactive
60	TPTE	1.43	migration z between -2 and 2; enough cells	6501	inactive
61	GIPC1	1.06	migration z between -2 and 2; enough cells	6470	inactive
62	VEZF1	0.52	migration z between -2 and 2; enough cells	5870	inactive
63	MED18	0.17	migration z between -2 and 2; enough cells	6306	inactive
64	GAPDH	-0.88	migration z between -2 and 2; enough cells	5800	inactive
65	THAP3	-0.99	migration z between -2 and 2; enough cells	7938	inactive
66	PNO1	-0.22	migration z between -2 and 2; enough cells	4782	inactive
67	SACS	-0.52	migration z between -2 and 2; enough cells	5184	inactive
68	SLC25A24	-0.16	migration z between -2 and 2; enough cells	6041	inactive
69	CCDC88C	1.54	migration z between -2 and 2; enough cells	6865	inactive
70	DGKD	-0.16	migration z between -2 and 2; enough cells	5396	inactive
71	GK5	-1.82	migration z between -2 and 2; enough cells	5792	inactive
72	GTSF1	-0.86	migration z between -2 and 2; enough cells	4738	inactive
73	CD19	-1.43	migration z between -2 and 2; enough cells	5651	inactive
